{"sequences": {"note": "Chains of the proteins cited; added tags and fusions are not shown.", "UniProt Q39026": "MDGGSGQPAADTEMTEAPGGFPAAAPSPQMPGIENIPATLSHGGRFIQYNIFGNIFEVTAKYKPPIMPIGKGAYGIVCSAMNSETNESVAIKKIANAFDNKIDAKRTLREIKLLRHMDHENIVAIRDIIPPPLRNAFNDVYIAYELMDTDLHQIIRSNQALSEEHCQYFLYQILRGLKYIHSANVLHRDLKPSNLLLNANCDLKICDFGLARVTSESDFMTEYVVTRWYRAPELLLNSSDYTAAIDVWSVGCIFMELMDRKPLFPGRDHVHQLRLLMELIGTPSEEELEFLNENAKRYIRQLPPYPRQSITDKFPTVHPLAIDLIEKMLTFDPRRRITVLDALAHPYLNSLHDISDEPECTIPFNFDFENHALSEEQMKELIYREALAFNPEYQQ"}, "source": "paper doi:10.1101/825323", "molecules": {"B1": {"name": "MPK3 fused with an N-terminal fragment of YFP (nYFP) (enzyme, UniProt Q39023 1-370)", "chain": "MNTGGGQYTDFPAVETHGGQFISYDIFGSLFEITSKYRPPIIPIGRGAYGIVCSVLDTETNELVAMKKIANAFDNHMDAKRTLREIKLLRHLDHENIIAIRDVVPPPLRRQFSDVYISTELMDTDLHQIIRSNQSLSEEHCQYFLYQLLRGLKYIHSANIIHRDLKPSNLLLNANCDLKICDFGLARPTSENDFMTEYVVTRWYRAPELLLNSSDYTAAIDVWSVGCIFMELMNRKPLFPGKDHVHQMRLLTELLGTPTESDLGFTHNEDAKRYIRQLPNFPRQPLAKLFSHVNPMAIDLVDRMLTFDPNRRITVEQALNHQYLAKLHDPNDEPICQKPFSFEFEQQPLDEEQIKEMIYQEAIALNPTYG"}, "B2": {"name": "MPK8-nYFP fusion (enzyme, UniProt Q9LM33 1-589)", "chain": "MGGGGNLVDGVRRWLFQRPSSSSSSSSSNNNNNNHEQPIFNSSSFSSSSNPNHSANSGELIIEEDLDFSGLTLINVPKRNHLPMDPHKKGETEFFTEYGEANRYQIQEVVGKGSYGVVASAVDSHTGERVAIKKINDVFEHVSDATRILREIKLLRLLRHPDVVEIKHIMLPPSRREFRDIYVVFELMESDLHQVIKANDDLTPEHYQFFLYQLLRGLKYVHAANVFHRDLKPKNILANADCKLKICDFGLARVSFNDAPTAIFWTDYVATRWYRAPELCGSFFSKYTPAIDIWSVGCIFAEMLLGKPLFPGKNVVHQLDLMTDFLGTPPPESISRIRNEKARRYLSSMRKKQPVPFSHKFPKADPLALRLLERLLAFDPKDRASAEDALADPYFSGLSNSEREPTTQPISKLEFDFERKKLVKDDVRELIYREILEYHPQMLEEYLRGGDQLSFMYPSGVDRFKRQFAHLEENQGKPGAAGGGRSTALHRHHASLPRERVPAPNGETAEESSDVERRAAAAVASTLESEEADNGGGYSARNLMKSASISGSKCIGVQSKTDKEDTIAEEEDNETVAELTDKVASLHNS"}, "B3": {"name": "SR1IP1 (SR1 Interaction Protein 1) (yeast two-hybrid fusion, GAL4-based system) (protein, UniProt Q66GP0 1-604)", "chain": "MSAKKKDLLSSAMKRTSEWISSQEVSSDVTVHVGEASFSLHKFPLMSKCGFIKKLVSESSKDSDSTVIKIPDIPGGSEAFELAAKFCYGINFDMSTENIAMLRCAAEYLEMTEEHSVENLVVRAEAYLNEVALKSLSSSITVLHKSEKLLPIAERVKLVSRCIDAIAYMTCQESHFCSPSSSNSGNNEVVVQQQSKQPVVDWWAEDLTVLRIDSFQRVLIAMMARGFKQYGLGPVLMLYAQKSLRGLEIFGKGMKKIEPKQEHEKRVILETIVSLLPREKNAMSVSFLSMLLRAAIFLETTVACRLDLENRMGLQLGQAVLDDLLIPSYSFTGDHSMFDTDTVQRILMNYLEFEVEGVRLSNNGVDLAGDMERVGKLLENYMAEIASDRNVSLQKFIGLAELIPEQSRVTEDGMYRAVDIYLKAHPNMSDVERKKVCSLMDCQKLSREACAHAAQNDRLPVQTIVQVLYYEQQRLRGEVTNDSDSPAPPPPQPAAVLPPKLSSYTDELSKLKRENQDLKLELLKMKMKLKEFEKESEKKTSSSTISTNPSSPISTASTGKPPLPRKSFINSVSKKLGKLNPFSITPYNGRGRTKPPKDRRHSIS"}, "B4": {"name": "SR1IP1 (BiFC fusion) (protein, UniProt Q66GP0 1-604)", "chain": "B3 chain"}, "B5": {"name": "SR1IP1 (split-LUC fusion) (protein, UniProt Q66GP0 1-604)", "chain": "B3 chain"}}, "key": {"[1]": {"molecular_target": "T1, calmodulin-binding transcription activator 3 (CAMTA3) fused with a C-terminal fragment of YFP (cYFP) (Arabidopsis thaliana) (UniProt Q8GSA7)", "T1 sequence": "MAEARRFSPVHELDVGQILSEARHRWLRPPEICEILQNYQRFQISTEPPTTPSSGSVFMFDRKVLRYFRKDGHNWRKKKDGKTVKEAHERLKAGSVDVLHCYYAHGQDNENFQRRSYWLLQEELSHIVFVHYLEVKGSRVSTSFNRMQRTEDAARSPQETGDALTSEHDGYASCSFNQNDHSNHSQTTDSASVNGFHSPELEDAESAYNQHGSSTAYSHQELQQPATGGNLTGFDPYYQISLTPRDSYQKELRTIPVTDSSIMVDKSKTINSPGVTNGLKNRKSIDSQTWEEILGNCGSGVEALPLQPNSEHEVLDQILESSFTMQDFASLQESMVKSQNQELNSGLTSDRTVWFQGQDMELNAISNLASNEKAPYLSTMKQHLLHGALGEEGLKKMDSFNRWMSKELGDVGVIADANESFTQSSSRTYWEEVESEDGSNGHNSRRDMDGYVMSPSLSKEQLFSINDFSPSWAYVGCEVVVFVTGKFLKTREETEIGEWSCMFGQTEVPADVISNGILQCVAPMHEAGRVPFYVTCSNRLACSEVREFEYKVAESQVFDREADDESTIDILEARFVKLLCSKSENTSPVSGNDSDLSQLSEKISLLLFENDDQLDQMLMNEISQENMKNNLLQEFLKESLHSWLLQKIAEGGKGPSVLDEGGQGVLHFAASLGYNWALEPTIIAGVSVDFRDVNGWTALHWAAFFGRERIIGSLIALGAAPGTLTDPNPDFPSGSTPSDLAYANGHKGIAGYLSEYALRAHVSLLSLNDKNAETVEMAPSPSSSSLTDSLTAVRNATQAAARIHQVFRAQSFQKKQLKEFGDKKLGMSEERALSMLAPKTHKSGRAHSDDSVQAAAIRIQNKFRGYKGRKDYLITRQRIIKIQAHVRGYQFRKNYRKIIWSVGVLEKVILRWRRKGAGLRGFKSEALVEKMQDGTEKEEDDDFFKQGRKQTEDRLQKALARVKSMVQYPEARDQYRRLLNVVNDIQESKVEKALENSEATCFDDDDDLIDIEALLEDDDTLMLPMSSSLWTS", "assay": "split reporter"}, "[2]": {"molecular_target": "T2, CAMTA3 (yeast two-hybrid fusion, GAL4-based system) (Arabidopsis thaliana) (UniProt Q8GSA7)", "T2 sequence": "T1 sequence", "assay": "two-hybrid"}, "[3]": {"molecular_target": "T3, CAMTA3 (BiFC fusion used against SR1IP1) (Arabidopsis thaliana) (UniProt Q8GSA7)", "T3 sequence": "T1 sequence", "assay": "split reporter"}, "[4]": {"molecular_target": "T4, CAMTA3 (split-LUC fusion) (Arabidopsis thaliana) (UniProt Q8GSA7)", "T4 sequence": "T1 sequence", "assay": "split reporter"}}, "note": "Results are given in words; binding and its absence hold for the method and conditions named. For part of these data: Binding seen in cells or lysates may run through a third protein. Some entries that bind do so weakly or less than the wild type. Where a sequence is shown, tags or fusion partners need not be part of it."}
{"molecule": "MPK6 fused with an N-terminal fragment of YFP (nYFP) (from UniProt Q39026 1-395) (enzyme)", "values": [{"measurement": "binding", "setting": "[1]", "value": "binds"}]}
{"molecule": "B1", "values": [{"measurement": "binding", "setting": "[1]", "value": "binds"}]}
{"molecule": "B2", "values": [{"measurement": "binding", "setting": "[1]", "value": "no binding"}]}
{"molecule": "B3", "values": [{"measurement": "binding", "setting": "[2]", "value": "no binding"}]}
{"molecule": "B4", "values": [{"measurement": "binding", "setting": "[3]", "value": "no binding"}]}
{"molecule": "B5", "values": [{"measurement": "binding", "setting": "[4]", "value": "no binding"}]}
